# Measurements reported in PubChem BioAssay AID1259405 (NCATS, 2018).
# Screen: 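Knock-downs that lift recombinant protein yield in hamster ovary cells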 (primary screen)
# Cell system: Chinese hamster CHO-K1 ovary cells with stable secreted eGFP expression
# Reagent: single siRNA against mouse genes, 0.8 pmol siRNA per well (2 µl of 400 nM stock)
# Time to read-out: 3 days
# Measurement: 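Per-well intracellular GFP measured by laser scanning cytometry, plus viability from ATP luminescence, each relative to plate median of non-targeting control wells, in %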
# Reading the numbers: GFP, % of control: higher = more GFP per well, higher productivity; viability (ATP), % of control: higher = more viable cells (more ATP)
# Active means: 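a knock-down is called active if GFP reaches 120% or more of non-targeting control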
# This is an unselected part of about 50,000 reagents tested. Over the whole deposit, about 4,000 (8%) are marked active. 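Mouse siRNA library applied to hamster cells; one well for each siRNA.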 Reagents against one gene are numbered here.
Target gene,siRNA no.,"GFP, % of control","viability (ATP), % of control",call
Baz1b,1,126,72.5,active
Baz1b,2,50.6,49.5,inactive
Baz1b,3,79.8,68.1,inactive
Ccdc28b,1,75.4,80.9,inactive
Ccdc28b,2,56.2,62.9,inactive
Ccdc28b,3,85.4,92.7,inactive
Or52n4b,1,109,76.5,inactive
Or52n4b,2,25.9,29.3,inactive
Or52n4b,3,80,84.8,inactive
Mzt1,1,91.6,79.3,inactive
Mzt1,2,32.8,58.5,inactive
Mzt1,3,112,49.2,inactive
Ly6g6e,1,51.8,86.6,inactive
Ly6g6e,2,67.8,59.3,inactive
Ly6g6e,3,99.2,87.6,inactive
Cdc25b,1,98.5,108,inactive
Cdc25b,2,50.2,48.6,inactive
Cdc25b,3,79.7,67.7,inactive
Gar1,1,60.9,65.6,inactive
Gar1,2,97.2,61.3,inactive
Gar1,3,116,55.1,inactive
Fap,1,91.9,88.2,inactive
Fap,2,77.7,59.5,inactive
Fap,3,71.6,77.8,inactive
Ccl11,1,91.8,111,inactive
Ccl11,2,80.8,106,inactive
Tie1,1,86.4,76.9,inactive
Tie1,2,51.9,86.1,inactive
Tie1,3,65.4,49,inactive
Insr,1,78.8,38.2,inactive
Mgat4a,1,64.3,65,inactive
Mgat4a,2,78.2,102,inactive
Mgat4a,3,120,112,inactive
Pth1r,1,40,42,inactive
Pth1r,2,67.5,78.5,inactive
Pth1r,3,63.2,83.8,inactive
Lbx2,1,91.3,86.7,inactive
Lbx2,2,68.1,60.8,inactive
Lbx2,3,46.7,51.1,inactive
Hsd11b2,1,109,85.1,inactive
Hsd11b2,2,208,69.1,active
Hsd11b2,3,99.5,65.1,inactive
Avpr1a,1,70,84.8,inactive
Avpr1a,2,95.4,88,inactive
Avpr1a,3,74.6,77.3,inactive
Cst13,1,41.4,51.5,inactive
Cst13,2,74.9,56.3,inactive
Cst13,3,109,99.6,inactive
Otp,1,108,57.7,inactive
Otp,2,74,79.9,inactive
Pin1,1,91.4,126,inactive
Pin1,2,108,94.4,inactive
Pin1,3,81.7,84,inactive
Sil1,1,118,66.9,inactive
Sil1,2,41.5,29.7,inactive
Sil1,3,62.1,80.8,inactive
Tubb2a,1,51.1,90.2,inactive
Tubb2a,2,83.7,87.3,inactive
C1rl,1,61.2,62.1,inactive
C1rl,2,142,30,active
C1rl,3,78,68.4,inactive

10 entries from above, limited to “GFP, % of control”.
Hsd11b2 #3: 99.5
Avpr1a #1: 70
Avpr1a #2: 95.4
Avpr1a #3: 74.6
Cst13 #1: 41.4
Cst13 #2: 74.9
Cst13 #3: 109
Otp #1: 108
Otp #2: 74
Pin1 #1: 91.4

Additional results:
Target gene,siRNA no.,"GFP, % of control","viability (ATP), % of control",call
Cep120,1,30.5,25.7,inactive
Cep120,2,60.5,46.3,inactive
Cep120,3,16.1,23.6,inactive
Ccdc70,1,76.7,86.3,inactive
Ccdc70,2,53.1,49.7,inactive
Ccdc70,3,69.8,59.6,inactive
Rpp38,1,98.5,93.1,inactive
Rpp38,2,57,46.1,inactive
Rpp38,3,118,56.5,inactive
Gnl3,1,86.5,72.7,inactive
Gnl3,2,59,75.1,inactive
F10,1,60.4,94.3,inactive
F10,2,51.5,67.3,inactive
F10,3,34.9,64.3,inactive
Suds3,1,90.3,87,inactive
Suds3,2,79.7,64.1,inactive
Suds3,3,87.4,104,inactive
Cidec,1,105,169,inactive
Cidec,2,40.7,36.5,inactive
Or4f62,1,80.3,82,inactive
Or4f62,2,62.6,21.3,inactive
Or4f62,3,37.1,86.4,inactive
Gipc2,1,71.9,40.8,inactive
Gipc2,2,90.5,69.6,inactive
Gipc2,3,48.2,52,inactive
Pcdhga2,1,62.4,69.1,inactive
Pcdhga2,2,76,110,inactive
Pcdhga2,3,80.7,66.2,inactive
Or51a25,1,90.2,91.8,inactive
Or51a25,2,96.9,72.5,inactive
Or51a25,3,61.5,94.2,inactive
Rpl22,1,105,79.5,inactive
Rpl22,2,21,20.8,inactive
Rpl22,3,88.6,66.3,inactive
Mlh3,1,81.2,93.5,inactive
Mlh3,2,75.7,72.3,inactive
Mlh3,3,73.2,78,inactive
Rprd1b,1,88.1,72.8,inactive
Rprd1b,2,85.4,66.5,inactive
Rprd1b,3,73.8,66.9,inactive
Mical3,1,99.1,55,inactive
Mical3,2,112,58.2,inactive
Mical3,3,73.6,92.1,inactive
Ly6m,1,77,59.8,inactive
Ly6m,2,54,63.3,inactive
Ly6m,3,71.1,84.6,inactive
